# Measured values reported in PubChem BioAssay AID2417 (National Center for Advancing Translational Sciences (NCATS), 2010).
# The whole screen tested about 140,000 compounds, of which about 4,300 (3.1%) were called active. Inconclusive means that the source gave no clear call. Such entries were picked first, then a sample of the others.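 The calls were made as follows: active = readout at or below -70, meaning at least 70% loss of cells showing the perinucleolar compartment, a nuclear body marking cancer cells; inconclusive = readout between -30 and a set limit; inactive = the rest.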
# Test: High Content Assay for Compounds that inhibit the Assembly of the Perinucleolar Compartment;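 also: plate controls were DMSO wells for no effect and camptothecin positive control wells for full effect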
# Settings: PC3M PTB-GFP, PNC prevalence imaging, 16 h; at 10 µM; stronger effect = lower value
# Procedure, shortened: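 Compounds are pinned in duplicate onto adhered PC3M cells stably expressing GFP-tagged PTB and incubated 16 h at 37 C. Cells are then fixed, nuclei stained with Hoechst, and PNC-positive cells counted.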
row,Compound,"activity change (PNC), negative = inhibition"
1,COc1cc(CNc2cc(C)ccc2C)cc(OC)c1OC,inconclusive: -59.5%
2,CC(C)Nc1oc(Cc2cccc3ccccc23)nc1C#N,inconclusive: -57%
3,COc1cc(N=c2c([N+](=O)[O-])nn(-c3ccc4c(c3)OCCO4)n2O)cc(OC)c1,inconclusive: -39%
4,COc1ccccc1N1CCN(C2CCN(C(=O)c3ccc(F)cc3)CC2)CC1,inactive: -26.6%
5,N#Cc1ccc(NC(=O)COC(=O)CNC(=O)C2CCCCC2)cc1,active: -105%
6,COc1ccc(NS(=O)(=O)c2ccc(C)c(NC(=O)c3ccc(C)c(S(=O)(=O)N4CCOCC4)c3)c2)cc1,inconclusive: -51.4%
7,CC(=O)c1cccc(N(CC(=O)NCC2CCCO2)C(=O)CCC(=O)Nc2cc(C)on2)c1 (stereo not drawn),active: -100%
8,N#Cc1c(NC(=O)c2ccc(Cn3cc(Br)cn3)o2)sc2c1CCCCC2,inactive: -7.96%
9,O=C(NCC1CCCO1)c1sc2cc(Cl)ccc2c1Cl (stereo not drawn),inconclusive: -34.7%
10,O=C(CN1C(=O)COc2ccccc21)NCCN1CCC(Cc2ccccc2)CC1,inconclusive: -31.6%
11,Cc1cc(C(=O)NN=C(Cc2ccccc2)Cc2ccccc2)c(C)o1,inconclusive: -33.2%
12,Cc1ccc(C(C(=O)NC(C)(C)C)N(Cc2cccs2)C(=O)c2ccc3c(c2)OCCO3)cc1 (stereo not drawn),inconclusive: -31.9%
13,CCOC(=O)c1c(C)nn(Cc2cccc(Cl)c2)c1N,inconclusive: -64.6%
14,CCOc1ccc(-c2c(=O)n(OCc3ccc([N+](=O)[O-])cc3)c3ccccc3[n+]2[O-])cc1,inactive: 42.1%
15,CCn1c(CNc2ccc(C)cc2C)nnc1SCC(=O)N1CCCc2ccccc21,inactive: -14%
16,CCN(CC(=O)NC(=O)NCc1ccco1)Cc1nc2ccccc2c(=O)[nH]1,inactive: -3.47%
17,CC(=S)/C=C1\Sc2ccccc2N1C,inconclusive: -34.6%
18,CCn1cc(Br)c(C(=O)N2CCN(c3ccccc3)CC2)n1,inconclusive: -31.7%
19,COc1ccc(/C=N\NC(=O)COc2ccccc2Cl)cc1Cn1nc(C)cc1C,inconclusive: -49.4%
20,CCOC(=O)NC1(Nc2ccc(Cl)cn2)Oc2ccccc2O1,inactive: -19.9%
21,Cc1cccc(Nc2nc(-c3ccc4c(c3)OCCO4)cs2)c1,inactive: 21.8%
22,Cc1cc(C(=O)CN2C(=O)C3CC=CCC3C2=O)c(C)n1-c1ccccc1 (stereo not drawn),inactive: 20.7%

row,Compound,"activity change (PNC), negative = inhibition"
1,CCOC(=O)c1c(CSc2nc(C)cc(C)c2C#N)n(C)c2cc(Br)c(OC(C)=O)cc12,inconclusive: -38.7%
2,COc1cccc(NC2c3ccccc3C(=O)N2Cc2ccco2)c1 (stereo not drawn),inconclusive: -44.6%
3,Cn1c(=O)c2c(nc(CN3CCC(C(N)=O)CC3)n2Cc2c(Cl)cccc2Cl)n(C)c1=O,inconclusive: -46%
4,CCOC(=O)c1cccc(NC(=O)CN2CCN(c3ccc(OC)cc3)CC2)c1,inconclusive: -60.8%
5,Fc1ccc(-c2cc(-c3nnc4n3CCCCC4)c3ccccc3n2)cc1,inactive: -0.155%
6,CCn1ncc([N+](=O)[O-])c1C(=O)Nc1ccc(C(=O)N2CCCCC2)cc1,inactive: 14.5%
7,CCCCOc1ccccc1NC(=O)c1ccc(=O)[nH]c1,inconclusive: -36.5%
8,COCCn1c(CNc2ccc(F)cc2)nnc1SCC(=O)Nc1ccc(OC)cc1OC,inactive: -0.389%
9,CN(C)S(=O)(=O)c1cccc(NC(=S)Nc2cc(Cl)cc(Cl)c2)c1,inactive: 35%
10,O=C(CNC(=O)c1ccc(F)cc1)N/N=C/c1ccc(O)c([N+](=O)[O-])c1,inactive: -24.7%
11,Cc1ccc2nc(SCc3nnc(-c4cccs4)o3)[nH]c2c1,inconclusive: -30.5%
12,CCCCNC(=S)N(Cc1c(C)noc1C)c1ccccc1,inconclusive: -49%
13,C=CCn1c(SCC(=O)Nc2nnc(CC)s2)nnc1-c1ccco1,inconclusive: -41.3%
14,O=C(NCC1COc2ccccc2O1)C1CCN(S(=O)(=O)c2cccc3nsnc23)CC1 (stereo not drawn),active: -85.4%
15,O=C(Nc1ccc(Cl)cc1C(F)(F)F)C(Sc1nnc(-c2cccs2)o1)c1ccccc1 (stereo not drawn),inactive: 27.4%
16,CCN1C(=O)C(CC(=O)Nc2ccc(OC)cc2)N(Cc2cccs2)C1=S (stereo not drawn),inactive: -7.89%
17,O=S(=O)(c1ccc(Oc2ccc(Br)cc2)cc1)N1CCOCC1,inactive: 24%
18,O=c1c2ccccc2nc(-c2ccccc2)n1CCCn1ccnc1,inactive: 33.2%
19,Cc1cc(C)n(CCc2nc(-c3ccc(F)cc3)cs2)n1,inactive: 50.2%
20,O=C(CSc1nnnn1-c1ccc2c(c1)OCCO2)N1CCc2ccccc21,inconclusive: -73.3%
21,Cc1cc2nc(-c3ccc(SCC(=O)Nc4ccc(S(=O)(=O)NC5CC5)cc4)nc3)[nH]c2cc1C,inconclusive: -56.4%
22,Cc1ccc(S(=O)(=O)c2ccc(Cl)cc2)cc1S(=O)(=O)NC(C)C(=O)O (stereo not drawn),active: -90%

row,Compound,"activity change (PNC), negative = inhibition"
1,C=CCN1C(=O)/C(=C2/Sc3ccccc3N2CCCS(=O)(=O)O)SC1=S,inconclusive: -35.4%
2,O=C(Cc1ccc2c(c1)CCCC2)Nc1ccc2ccccc2c1,inconclusive: -35.8%
3,CC(C)NC(=O)c1ccccc1NC(=O)/C=C/c1cccc([N+](=O)[O-])c1,inconclusive: -52.3%
4,COC(=O)c1cc(NC(=O)c2cccc(C(F)(F)F)c2)c(=O)oc1C/C=N/OCc1cccc(Cl)c1Cl,inactive: -22.5%
5,O=C1CC(N2CCN(CCc3ccccn3)CC2)C(=O)N1c1ccc(Cl)cc1 (stereo not drawn),inconclusive: -37.4%
6,COc1ccc2c(c1)c1nnc(SC)nc1n2C,active: -88.4%
7,Cc1ccc(/C=C/c2nc3ccccc3c(=O)n2CCc2ccccc2)cc1,active: -82.6%
8,CC(C)COc1ccc(CNC(=S)N/N=C/c2ccc([N+](=O)[O-])cc2)cc1,inconclusive: -35.9%
9,Cc1ccc(/C=N/NC(=O)c2csc3c2CCCC3)cc1,inconclusive: -73.3%
10,CCOc1cc(/C=N\NC(N)=O)cc(Br)c1OC(C)C,active: -97.4%
11,CCSC1=C(C#N)C(c2ccc(Cl)cc2)C2=C(CCCC2=O)N1 (stereo not drawn),inconclusive: -72.9%
12,COCCn1c(N)c(C(=O)NCc2cccs2)c2nc3ccccc3nc21,inconclusive: -53.7%
13,COc1ccc(-c2c(C#N)c(N)nc3sc(C(=O)c4ccccc4)c(N)c23)cc1,inactive: -17.4%
14,CC1=NN(C(=O)Cc2ccc([N+](=O)[O-])cc2)C(O)(c2cccnc2)C1 (stereo not drawn),inconclusive: -50.3%
15,Cc1ccc(S(=O)(=O)N/N=C\c2cc3c(cc2Br)OCO3)cc1,inactive: 34.5%
16,CCC(CC)NC(=O)COC(=O)c1cccc(C)c1O,inconclusive: -46.4%
17,O=C(/C=C/c1ccco1)NC(=S)Nc1nc(-c2ccc3ccccc3c2)cs1,inactive: 4.49%
18,O=C(C(c1ccccc1)c1ccccc1)N1CCN(CCN2C(=O)c3cccc4cccc(c34)C2=O)CC1,inconclusive: -37.8%
19,CCCCCCSC1=C(C#N)C(c2ccc(C)o2)CC(=O)N1 (stereo not drawn),inactive: -24.1%
20,COC(=O)CC1C(=O)NCCN1C(=O)CSc1nnc(Nc2ccc(C)cc2)s1 (stereo not drawn),inactive: -27.8%
21,O=C(Nc1nnc(C2CC2)s1)c1ccccn1,inconclusive: -36.6%
22,COc1cccc(/C=C2\SC(=O)N(CCC(=O)NNC(=O)c3cccc(Cl)c3)C2=O)c1,active: -85.8%

row,Compound,"activity change (PNC), negative = inhibition"
1,COc1cccc(OCCOCCOc2ccc(C)cc2[N+](=O)[O-])c1,inconclusive: -61%
2,CCCCN(CCCNC(=O)CN1C(=O)COc2ccccc21)c1ccccc1,inconclusive: -36.4%
3,CCc1nnc(NC(=O)CSc2nccn2-c2cccc(C)c2C)s1,inactive: 8.48%
4,Cc1ccc(-n2c(SCC(=O)OC(C)C)nnc2-c2cnccn2)cc1,inconclusive: -60.1%
5,CC(C)Oc1cccc(C(=O)NC(=S)Nc2cccnc2)c1,inactive: -12.8%
6,CCOc1ccc(NC(=O)Nc2cc(-c3ccccc3)sc2C(=O)OC)cc1,inconclusive: -36.9%
7,N[C@@H](Cc1ccccc1)c1nnc(SCc2ccccc2Cl)o1,inactive: 21.7%
8,O=C(O)CCc1ccc(-c2cccs2)n1Cc1ccco1,inconclusive: -36.3%
9,Cc1nn(-c2ccccc2)c(C)c1C(=O)NCc1cccs1,inactive: 12.3%
10,C=CCn1c(=N)n(CC(=O)O)c2ccccc21,inconclusive: -40.3%
11,COc1cccc(NC(=O)CN(C)C(=O)c2ccc3ccccc3c2)c1,inconclusive: -38.6%
12,COC(=O)c1ccc(NC(=O)C2CCCN2S(=O)(=O)c2ccc(C)cc2)cc1 (stereo not drawn),active: -119%
13,CCOC(=O)c1nn(C23CC4CC(CC(C4)C2)C3)c2c1C(=O)N(c1ccc(C)cc1)C2=O,inconclusive: -50.4%
14,COc1ccc(Nc2nc(-c3sc(N)nc3C)cs2)cc1,inconclusive: -71.1%
15,COC(=O)c1cc(Cl)c(NC(=O)c2cc(OC)c(OC)c(OC)c2)cc1OC,inconclusive: -41.9%
16,CCN(CC)CCCN1C(=O)C(O)=C(C(=O)c2ccco2)C1c1ccc(OC(C)C)cc1 (stereo not drawn),inconclusive: -30.5%
17,Oc1cccc(/C=N/c2c(-c3ccco3)nc3ccccn23)c1,inactive: -7.73%
18,NC(=O)c1nn(-c2ccccc2)c(=O)cc1O,inactive: -1.96%
19,Cc1onc(-c2ccccc2)c1C(=O)NCc1cccnc1,inconclusive: -54.4%
20,CCOc1ccc(C)cc1S(=O)(=O)NC1CCCCC1,inconclusive: -44.5%
21,O=C1c2ccccc2NC(c2ccc(-c3ccc(Br)cc3)o2)N1O (stereo not drawn),inactive: -19.4%
22,O=c1[nH]c(CSc2ncc(-c3ccc(F)cc3)n2Cc2ccco2)nc2ccccc12,inconclusive: -53.2%

# Some of the entries so far, with bars between the fields:
row | Compound | activity change (PNC), negative = inhibition
1 | COc1cccc(OCCOCCOc2ccc(C)cc2[N+](=O)[O-])c1 | inconclusive: -61%
3 | CCc1nnc(NC(=O)CSc2nccn2-c2cccc(C)c2C)s1 | inactive: 8.48%
6 | CCOc1ccc(NC(=O)Nc2cc(-c3ccccc3)sc2C(=O)OC)cc1 | inconclusive: -36.9%
14 | COc1ccc(Nc2nc(-c3sc(N)nc3C)cs2)cc1 | inconclusive: -71.1%
15 | COC(=O)c1cc(Cl)c(NC(=O)c2cc(OC)c(OC)c(OC)c2)cc1OC | inconclusive: -41.9%
22 | O=c1[nH]c(CSc2ncc(-c3ccc(F)cc3)n2Cc2ccco2)nc2ccccc12 | inconclusive: -53.2%
